In patent US7514207B2, “Methods of screening for compounds that decrease phosphorylation of merlin and may be useful in cancer treatment” (Massachusetts Institute of Technology, priority 2001, dated 2009):

Tested on: merlin kinase
Assay: In-vitro merlin kinase assay with kinase inhibitors
Assay type: biochemical
Settings: inhibition of the activity of the merlin kinase

SMILES: CN[C@@H]1C[C@H]2O[C@@](C)([C@@H]1OC)n1c3ccccc3c3c4c(c5c6ccccc6n2c5c31)C(=O)NC4 [Staurosporine]
- concentration range inhibiting the merlin kinase: lower nM range
